Amino acid sequences for entries named in this document (tags omitted). A change or cut given only in a name is not applied to a line headed by its entry.
UniProt A2AKB9: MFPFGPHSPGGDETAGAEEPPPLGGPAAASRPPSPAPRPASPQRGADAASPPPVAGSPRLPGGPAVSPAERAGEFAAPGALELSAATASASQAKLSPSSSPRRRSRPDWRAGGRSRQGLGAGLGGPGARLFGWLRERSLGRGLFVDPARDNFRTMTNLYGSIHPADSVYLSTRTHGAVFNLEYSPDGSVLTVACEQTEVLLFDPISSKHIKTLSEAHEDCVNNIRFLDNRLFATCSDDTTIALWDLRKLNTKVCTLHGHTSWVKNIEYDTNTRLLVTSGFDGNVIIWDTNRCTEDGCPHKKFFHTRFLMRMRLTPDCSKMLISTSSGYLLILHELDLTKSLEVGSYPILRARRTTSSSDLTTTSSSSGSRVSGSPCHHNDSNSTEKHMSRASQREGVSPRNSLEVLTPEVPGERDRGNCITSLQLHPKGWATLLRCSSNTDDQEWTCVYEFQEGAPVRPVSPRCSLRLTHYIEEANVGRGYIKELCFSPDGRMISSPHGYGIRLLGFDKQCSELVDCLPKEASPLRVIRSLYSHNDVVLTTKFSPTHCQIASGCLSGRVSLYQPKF
UniProt A8Y5H7: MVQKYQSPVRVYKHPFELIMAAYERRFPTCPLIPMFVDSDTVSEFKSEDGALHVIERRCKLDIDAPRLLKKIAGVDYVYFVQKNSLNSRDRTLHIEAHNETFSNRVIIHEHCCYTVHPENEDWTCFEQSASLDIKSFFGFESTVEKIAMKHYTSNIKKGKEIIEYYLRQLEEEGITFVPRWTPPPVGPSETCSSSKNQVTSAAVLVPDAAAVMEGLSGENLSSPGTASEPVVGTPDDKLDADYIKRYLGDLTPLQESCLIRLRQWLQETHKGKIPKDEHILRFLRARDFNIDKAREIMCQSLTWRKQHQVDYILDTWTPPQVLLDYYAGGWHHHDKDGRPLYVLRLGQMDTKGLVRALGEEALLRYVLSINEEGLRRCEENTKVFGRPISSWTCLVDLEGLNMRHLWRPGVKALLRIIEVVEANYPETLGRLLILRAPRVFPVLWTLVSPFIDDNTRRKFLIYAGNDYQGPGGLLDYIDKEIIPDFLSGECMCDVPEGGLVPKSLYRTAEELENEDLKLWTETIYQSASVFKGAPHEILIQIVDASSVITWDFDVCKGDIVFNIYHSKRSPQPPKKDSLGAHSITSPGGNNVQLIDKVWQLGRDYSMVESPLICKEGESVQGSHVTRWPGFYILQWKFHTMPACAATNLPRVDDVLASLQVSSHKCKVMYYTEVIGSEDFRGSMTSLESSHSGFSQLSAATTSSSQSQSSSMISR
UniProt A2AJL3: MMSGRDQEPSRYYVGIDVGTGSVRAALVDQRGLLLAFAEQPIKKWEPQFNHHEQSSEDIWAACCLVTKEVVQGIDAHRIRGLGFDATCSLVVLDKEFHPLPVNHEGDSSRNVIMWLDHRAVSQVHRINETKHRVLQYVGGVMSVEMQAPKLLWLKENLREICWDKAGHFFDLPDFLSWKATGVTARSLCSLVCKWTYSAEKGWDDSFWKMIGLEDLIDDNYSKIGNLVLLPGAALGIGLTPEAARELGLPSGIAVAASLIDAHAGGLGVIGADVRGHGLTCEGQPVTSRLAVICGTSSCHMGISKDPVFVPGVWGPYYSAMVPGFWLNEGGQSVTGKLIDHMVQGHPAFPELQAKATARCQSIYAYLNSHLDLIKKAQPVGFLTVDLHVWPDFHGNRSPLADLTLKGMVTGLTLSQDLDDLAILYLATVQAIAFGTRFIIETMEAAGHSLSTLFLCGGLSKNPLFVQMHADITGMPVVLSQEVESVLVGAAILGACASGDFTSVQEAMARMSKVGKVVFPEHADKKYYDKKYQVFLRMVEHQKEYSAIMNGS

Some of the results follow. Small differences around the control level are noise.
What follows are targets tested with CN[C@@H]1C[C@H]2O[C@@](C)([C@@H]1OC)n1c3ccccc3c3c4c(c5c6ccccc6n2c5c31)C(=O)NC4 [staurosporine] (assay: log2 fold change of tryptic peptide abundance, ligand vs vehicle (limited proteolysis) (log2 ratio); higher = more trypsin-susceptible (destabilized)). Conditions: ligand concentration: 20 uM; sample: mouse liver crude lysate; replicate design: treated separately.
Work on “UniProt A2AKB9 (peptide sequence: QGLGAGLGGPGAR, peptide start residue: 117)” yielded a log2 fold change of 0.193. “UniProt A8Y5H7 (peptide sequence: LRQWLQETHK, peptide start residue: 262)” gave a log2 fold change of -0.329. “UniProt A2AJL3 (peptide sequence: VVFPEHADKK, peptide start residue: 517)” showed a log2 fold change of 0.264. In the case of “A0A0B4J1G0 (peptide sequence: IQWSKEPQDK, peptide start residue: 240), A0A0B4J1G0”, the log2 fold change is reported as -0.259.

— the supplement of paper PMC12819154, “High-throughput peptide-centric local stability assay extends protein–ligand identification to membrane proteins, tissues and bacteria” (Nature Structural & Molecular Biology, 2025)
